Measurements published in PubChem BioAssay AID901 (National Center for Advancing Translational Sciences (NCATS), 2007).
This is one part of the list. These are further read-outs of the screen, such as a control signal, another cell line or another target. No call is given for them. Compounds called inactive in the main read-out are mostly missing here. The note in brackets gives the kind of curve behind each potency; many fits are weak.

Test: qHTS Assay for Identifying the Cell-Membrane Permeable IMPase Inhibitors
Settings: CHO-M1 cells, IP1 accumulation, HTRF TR-FRET ratio; measured here: donor channel 620 nm AC50

Compound	AC50
CCOC(=O)C(CCCOc1ccccc1)C(=O)OCC	31.6 µM [falling, single point]
CCCS(=O)(=O)c1c(S(=O)(=O)CCC)c2c(N)cccn2c1C(=O)c1ccc(F)cc1	0.0316 µM [falling, full curve, poor fit]
COc1cc(NS(=O)(=O)c2ccccc2)ccc1-n1nc(C)cc1C	3.16 µM [falling, partial curve]
CCOC(=O)c1cnc(SCC(=O)Nc2nc(C)c(C)s2)nc1N	0.0398 µM [falling, full curve, poor fit]
CC(C)CN1C(=O)NC(NC(=O)c2cccnc2)(C(F)(F)F)C1=O (stereo not given)	31.6 µM [falling, single point]
COc1ccc(C(C(=O)NC2CCCC2)N(C(=O)c2ccoc2C)c2ccc(C)cc2)cc1 (stereo not given)	0.0126 µM [falling, full curve, poor fit]
Cc1cc(C)c(N=Cc2c(O)n(-c3nccs3)c(=O)c3ccccc23)c(C)c1	5.01 µM [rising, single point]
CC(=O)N1CCc2cc(S(=O)(=O)CCC(=O)N3CCN(c4ccccn4)CC3)ccc21	0.631 µM [falling, full curve]
CCOC(=O)N1CCN(C(=O)N2CCOCC2)CC1	0.00447 µM [falling, full curve, poor fit]
Cc1cc(Nc2ccc3c(c2)OCCO3)n2ncnc2n1	0.126 µM [falling, full curve, poor fit]
Cc1ccc(N(CC(=O)NCCSCc2ccco2)S(=O)(=O)c2ccc(C)cc2)cc1	0.158 µM [rising, full curve, poor fit]
CCOc1ccc(NC(=O)CSCC(=O)O)cc1	0.2 µM [falling, full curve, poor fit]
O=C(CSc1nnc(-c2ccc3c(c2)OCO3)n1-c1ccccc1)c1ccccc1	35.5 µM [rising, single point]
CCCCNC(=O)Nc1ccccc1C(=O)NCCC	20 µM [rising, single point]
CCn1nnnc1SCC(=O)N(C1CCCCC1)C1CCCCC1	10 µM [falling, partial curve, poor fit]
CCOC(=O)c1cccc(NC(=O)Nc2c(C)n(C)n(-c3ccccc3)c2=O)c1	1.26 µM [rising, partial curve, poor fit]
Cc1cc(C)nc(NC(=O)CSc2ccccn2)n1	0.316 µM [falling, partial curve]
O=S(=O)(c1cccc(-c2nc3n(n2)Cc2ccccc2-3)c1)N1CCCCC1	31.6 µM [rising, single point]
COc1ccc(N2CCN(CC(=O)NC(=O)NCc3ccco3)CC2)cc1	4.47 µM [rising, single point]
O=C(CCCn1c(=O)[nH]c2cc(Cl)ccc2c1=O)N1CCN(c2ccc([N+](=O)[O-])cc2)CC1	5.01 µM [falling, full curve]
COc1ccc(CCn2c(SCC(=O)Nc3cc(C)on3)nc3ccsc3c2=O)cc1OC	1.12 µM [rising, full curve]
COc1ccc(CNc2nc3nc(-c4ccccc4)cc(=O)n3[nH]2)cc1OC	35.5 µM [rising, single point]

Arranged by SMILES length (low to high): some entries from above
Compound	AC50
Cc1cc(Nc2ccc3c(c2)OCCO3)n2ncnc2n1	0.126 µM [falling, full curve, poor fit]
CC(C)CN1C(=O)NC(NC(=O)c2cccnc2)(C(F)(F)F)C1=O (stereo not given)	31.6 µM [falling, single point]
CCOC(=O)c1cccc(NC(=O)Nc2c(C)n(C)n(-c3ccccc3)c2=O)c1	1.26 µM [rising, partial curve, poor fit]

Carrying on:

Compound	AC50
N#C/C(=C\c1ccc(N2CCOCC2)o1)c1nc2ccccc2[nH]1	20 µM [falling, single point]
CO[C@]1(NC(=O)CSCC#N)C(=O)N2C(C(=O)O)=C(CSc3nnnn3C)CS[C@H]21	0.0501 µM [falling, full curve, poor fit]
COc1ccccc1N1CCN(S(=O)(=O)c2ccccc2F)CC1	20 µM [falling, partial curve, poor fit]
COc1cccc(CN(Cc2cccnc2)S(=O)(=O)c2ccc(-n3cnnn3)c(C)c2)c1OC	0.0316 µM [falling, full curve]
Clc1cccc(-c2ccc(/C=N/n3cnnc3)o2)c1	5.01 µM [rising, single point]
CCn1nc(C)c(NC(=O)CCCSc2nc(-c3ccco3)cc(C(F)(F)F)n2)c1C	1 µM [falling, single point]
CCOC(=O)N1CCN(C(=O)C(NC(=O)C2CCC(C)CC2)C(C)C)CC1 (stereo not given)	1.58 µM [rising, full curve, poor fit]
O=C(c1ccc(CS(=O)(=O)c2cccc(C(F)(F)F)c2)o1)N1CCN(c2ccccn2)CC1	5.01 µM [rising, single point]
O=C(Nc1ccc(F)cc1Cl)c1ccc2c(=O)n3c(nc2c1)CCCCC3	25.1 µM [falling, single point]
C=CCNc1nc(-c2sc(NC(C)=O)nc2C)cs1	15.8 µM [falling, partial curve, poor fit]
CCOC(=O)N1CCC(NC(=O)CSc2cc(=O)n(C)c3ccccc23)CC1	2 µM [rising, full curve]
CCOc1ccc2nc(NC(=O)C3CCCN(S(=O)(=O)c4cccs4)C3)sc2c1 (stereo not given)	5.01 µM [rising, single point]
COc1ccc(N2CCN(C(c3ccccc3)c3nnnn3Cc3ccc(F)cc3)CC2)cc1 (stereo not given)	0.794 µM [falling, full curve, poor fit]
CCc1ccc(C2CC(=O)c3c([nH]c(C(=O)OC4CCCCCC4)c3C)C2)cc1 (stereo not given)	0.00316 µM [falling, full curve, poor fit]
Cc1nn(C(=O)N2CCOCC2)c(C)c1C	5.01 µM [falling, single point]
Cc1ccc(-c2nc3ccccc3n3c(C)nnc23)cc1	0.00316 µM [falling, full curve, poor fit]
COCCn1c(=O)[nH]c(=O)c2c(C(F)(F)F)cc(-c3cccs3)nc21	35.5 µM [rising, single point]
Cc1cc2cc(OCC(=O)O)ccc2n1C	5.01 µM [falling, single point]
C=CCN(C(=O)COc1ccccc1)c1nnc(-c2ccncc2)s1	25.1 µM [falling, single point]
Cc1cc2cc3c(cc2nc1SCC(=O)Nc1nc(C)c(C)s1)OCO3	22.4 µM [rising, single point]
O=C(CSc1nnc(CNC(=O)C23CC4CC(CC(C4)C2)C3)n1-c1ccc(F)cc1)Nc1ccccc1	31.6 µM [rising, single point]
COc1ccc(-c2nn3c(-c4ccc(OC)cc4)nnc3c3ccccc23)cc1	0.794 µM [falling, full curve, poor fit]

Compound	AC50
O=C(CN1CCOCC1)Nc1ncc(Br)cc1Br	0.00398 µM [falling, full curve, poor fit]
CCOC(=O)C1C(=O)CC(C)(O)C(C(=O)OCC)C1c1ccccc1 (stereo not given)	0.2 µM [rising, full curve]
COc1ccc(CN(CCC(c2ccc3c(c2)OCO3)c2ccccc2OC)C(C)=O)cc1 (stereo not given)	0.891 µM [falling, full curve]
O=C(Cc1ccc(-c2ccccc2)cc1)N1CCOCC1	3.98 µM [rising, partial curve, poor fit]
CCc1nnc(NC(=O)CSc2nc(C3CCCCC3)nc3ccccc23)s1	3.98 µM [rising, partial curve]
CN(C(=O)COC(=O)c1ccccc1Nc1ccccc1)C1CCS(=O)(=O)C1 (stereo not given)	0.794 µM [falling, full curve, poor fit]
CCCCc1nc2sc3c(SCC(=O)NCc4ccco4)ncnc3c2c2c1CCC2	3.16 µM [rising, partial curve, poor fit]
CCOC(=O)c1c(C)oc2ccc(N(C(=O)Oc3ccccc3)S(=O)(=O)c3ccccc3)cc12	35.5 µM [rising, single point]
Cc1cccc(-n2ncc3c(NCCN4CCOCC4)ncnc32)c1	10 µM [rising, partial curve]
Cc1nc2scc(C)n2c(=O)c1S(=O)(=O)Nc1ccc(N2CCOCC2)c(Cl)c1	5.62 µM [falling, single point]
Cc1nc2ccccc2nc1SCC(=O)N1CCC(C)CC1	12.6 µM [rising, partial curve]
O=C(CN(C(=O)C1CSC(=O)C1)c1ccccc1F)NCc1ccc2c(c1)OCO2 (stereo not given)	3.98 µM [falling, single point]
COC(=O)c1ccc(/C=C/c2ccc3cccc(OC)c3n2)cc1	11.2 µM [rising, single point]
NC(=O)c1ccccc1NC(=O)c1ccc(-c2ccc(Br)cc2)o1	15.8 µM [rising, single point]
CCOC(=O)CC(=O)CSc1ncnc2c1cnn2-c1ccccc1	6.31 µM [falling, single point]
COC(=O)c1ccccc1S(=O)(=O)Nc1ccc(OC)nc1	31.6 µM [falling, single point]
Cc1nc2c(c(=O)n1CCC(C)C)c1nc3ccccc3nc1n2Cc1ccc2c(c1)OCO2	1 µM [rising, full curve, poor fit]
CCS(=O)(=O)n1nc(-c2ccccc2)nc1NCc1ccco1	0.794 µM [falling, full curve]
Cc1ccccc1Cn1ccc(NC(=O)c2cnn3c2NC(c2ccccc2)CC3C(F)(F)F)n1 (stereo not given)	0.794 µM [falling, partial curve, poor fit]
CCOc1ccccc1-c1c2cc(O)c(=O)cc-2oc2cc(O)c(O)cc12	11.2 µM [falling, partial curve]
CC(C)Cn1[nH]c2c3c(ccc2c1=O)C(=O)c1ccccc1C3=O	10 µM [falling, partial curve]
